In PubChem BioAssay AID1458 (National Center for Advancing Translational Sciences (NCATS), 2008):
Hit rate of the full screen: of about 210,000 compounds, about 5,900 (2.8%) were called active. Not shown: some 5% with an inconclusive outcome. Calls come from the whole dose curve; as a rule, active = well fitted activation curve with a large enough effect; inconclusive = small, poorly fitted or top-dose-only effect; inactive = no such curve, though single readings can be large or run the other way. The entries are a selection whose mix differs from that of the whole data set. The source gives no active or inactive call for entries shown without one.

Assay: qHTS Assay for Enhancers of SMN2 Splice Variant Expression; note: nearly all actives have a fitted effect of over 55% in size; for activity change, positive = activation: % of control where 0% means no effect
Conditions: HEK293 SMN2-luciferase splicing reporter, luminescence, 30-36 h; activity change, positive = activation: at 46.1 µM (top of the series) unless noted
Outline: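 qHTS luciferase splicing reporter: luminescence rises when SMN2 exon 7 is included in transfected HEK293 cells. Compound exposure lasted 30-36 h at 37C, with 4.5 mM final sodium butyrate as control, followed by a ONE-Glo read.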
Potency is the fitted concentration of half-maximal effect.

SMILES | Potency | activity change, positive = activation
Cc1ccc(C(=O)Nc2ccc(SC(F)F)cc2)s1 | active: 7.08 µM | 
Cc1oc(C)c(C(N)=O)c1C(N)=O |  | 55.8%
O=S1(=O)C=C(SCc2ccc(Cl)c(Cl)c2)Nc2ccccc21 |  | inactive: -76.7%
CCc1ccc(CNC(=O)Cn2c(-c3cccs3)cc3cc(F)ccc32)cc1 |  | 49.3%
Cc1ccc2nc(-c3cccnc3SCC(=O)N3c4ccccc4CC3C)[nH]c2c1 (stereo unspecified) | active: 14.1 µM | 
CCOc1c2ccc(C(=O)NCCc3cccs3)cc2nn1CC | active: 14.1 µM | 
CCOC(=O)c1nn(-c2ccc(C)cc2)cc1C(=O)c1ccccc1 | active: 11.2 µM | 
O=C(Nc1ccc(Cc2ccncc2)cc1)C1CCC(N2C(=O)C3C4C=CC(C5CC45)C3C2=O)CC1 (stereo unspecified) |  | inactive: -66.4%
N/C(=N\OC(=O)COc1ccccc1Cl)c1ccccn1 | active: 12.6 µM | 
O=C(NC1=NCCS1)c1cccc(OC(F)F)c1 | active: 11.2 µM | 
CCCC(=O)Nc1ccc(NC(=O)C23CC4CC(CC(C4)C2)C3)cn1 |  | 38.1%
COc1ccc2nc(NC(=O)CCNS(=O)(=O)c3ccc4c(c3)oc(=O)n4C)sc2c1 |  | 30.1%
CC(=O)c1ccc(NC(=S)NC(=O)CC(C)C)cc1 | active: 7.94 µM | 
CN1C(=O)/C(=C/C=C2\SCCN2C)OC1=S | active: 12.6 µM | 
Cc1nn(C)cc1CN(C)C(=O)CC12CC3CC(CC(C3)C1)C2 |  | -21.4%
CC(=O)c1c(C)[nH]c(C(=O)OCC(=O)Nc2ccc(Cl)cc2[N+](=O)[O-])c1C |  | inactive: -77.4%
CCOc1ccc(OCC(=O)Nc2nccs2)cc1 | active: 5.01 µM | 
CCC(C)(C(=O)NC1CCCCC1)N(C(=O)C1CCC(=O)N1)c1ccc(C)cc1 (stereo unspecified) |  | 24.5%
CC(OC(=O)c1ccccc1N1C(=O)C2C3CCC(C3)C2C1=O)C(=O)c1ccccc1 (stereo unspecified) |  | 33.4%
O=C(N/N=C/c1ccc[nH]1)c1cc(-c2ccc(Cl)cc2)nc2ccccc12 |  | inactive: -33.1%
O=C(Nc1ccc(Br)cc1)c1ccccc1CC[N+](=O)[O-] |  | 38.7%
COc1ccccc1CNc1nc2nc(C)cc(=O)n2[nH]1 |  | 32.4%

3 structures out of the list, ordered by number of heavy atoms, low to high:
SMILES | Potency | activity change, positive = activation
CCC(C)(C(=O)NC1CCCCC1)N(C(=O)C1CCC(=O)N1)c1ccc(C)cc1 (stereo unspecified) |  | 24.5%
CC(OC(=O)c1ccccc1N1C(=O)C2C3CCC(C3)C2C1=O)C(=O)c1ccccc1 (stereo unspecified) |  | 33.4%
O=C(Nc1ccc(Cc2ccncc2)cc1)C1CCC(N2C(=O)C3C4C=CC(C5CC45)C3C2=O)CC1 (stereo unspecified) |  | inactive: -66.4%

The list goes on.

SMILES | Potency | activity change, positive = activation
Cn1cnnc1SCC(=O)Nc1sccc1C#N |  | 44.2%
CCCc1nc2ccccc2n1Cc1ccccc1OC |  | inactive: -46.7%
O=C(N/N=C/c1sc2ccccc2c1O)c1cccc2ccccc12 |  | inactive: -91.6%
CC1(C)CC(C)(O)P(=O)(c2ccccc2)O1 (stereo unspecified) |  | 44.6%
N#Cc1c(C(F)(F)F)cc(-c2ccccc2)nc1SCC(=O)Nc1sc2c(c1C#N)CCC2 |  | -11.8%
COCC(C)N1C(=O)Cc2c1nc(N)c1c(N)nc(N3CCN(c4ccccc4F)CC3)c(C#N)c21 (stereo unspecified) |  | -77.2%
CC1=CN2C(=N)/C(=C/c3cn(CCCOc4ccccc4C)c4ccccc34)C(=O)N=C2S1 |  | inactive: -48.4%
COc1ccc2c(c1)c1c(c(=O)n(-c3cccc(C)c3)c(=O)n1CC(=O)Nc1c(C)cc(C)cc1C)n2C |  | 34.1%
CC(C)CN(CCCNC(=O)CN1C(=O)COc2ccc(S(=O)(=O)N3CCCCCC3)cc21)CC(C)C |  | 35.8%
Cc1cccc[n+]1CCCCCCCCCC[n+]1ccccc1C |  | inactive: -30.9%
Cc1c(NC(=O)c2cc(-c3cccc(Cl)c3)on2)c(=O)n(-c2ccccc2)n1C |  | 35.6%
CCOc1cc(N(CC)CC)ccc1/C=C(/C#N)c1nc2ccccc2[nH]1 |  | inactive: -46.7%
COc1ccc(-c2[nH]c3ccccc3c2SCCNC(=O)c2ccccc2)cc1 |  | inactive: -49.2%
CC1CC1C(=O)Nc1nc(-c2ccccc2)cs1 (stereo unspecified) |  | inactive: -7.04%
Cc1ccc(C)c(-c2cc(C(=O)Nc3sc(C)c(C)c3C(N)=O)c3ccccc3n2)c1 |  | inactive: -81.5%
COc1ccc(S(=O)(=O)NNC(=O)c2ccccc2-n2cccc2)cc1 |  | 30.9%
Cc1cccc(/C=C\c2nc3ccccc3c(=O)[nH]2)c1 | active: 2.82 µM | 
CC(=O)c1c(C)[nH]c(C(=O)OCC(=O)Nc2cccc(S(=O)(=O)N3CCCC3)c2)c1C |  | inactive: -66.2%
C/C(CC(=O)NCCCN1CCOCC1)=N\NC(=O)COc1cccc2ccccc12 |  | 1.01%
CC(C)CC(c1nnnn1Cc1ccccc1)N1CCN(C(=O)c2ccco2)CC1 (stereo unspecified) |  | 30.3%
COc1ccc(CN2CCN(C(=O)C3CC(=O)N(C4CCCCCC4)C3)CC2)c(OC)c1OC (stereo unspecified) |  | -56.3%
CCOC(=O)c1ccc(Nc2ccc([N+](=O)[O-])cn2)cc1 |  | 33.5%

SMILES | Potency | activity change, positive = activation
Cc1cccc(C)c1-n1cccc1/C=C1/C(=N)N2C(=NC1=O)SN=C2S(C)(=O)=O |  | inactive: -37.4%
O=c1n(Cc2ccc(Cl)cc2)c2sc3c(c2c2ncnn12)CCCC3 |  | -33.1%
O=S(=O)(c1ccccc1)N1CCC[C@@]2(CCN(Cc3nccs3)C2)C1 |  | inactive: -62.5%
COCCNC(=O)c1cc2oc3ccccc3c2n1C |  | 51.3%
O=C(Nc1cnc2ccccc2c1)c1cccnc1 | active: 12.6 µM | 
Cc1cc(C)c2c(c1)c(C)cc1nnc(SCC(=O)NCc3ccco3)n12 |  | 48.1%
CCCNC(=O)C(Sc1ccccc1)c1ccccc1 (stereo unspecified) |  | -18.3%
COc1ccc2c(c1)Cc1sc(NC(C)=O)nc1-2 | active: 5.62 µM | 
CCOc1ccccc1CNC(=O)C1CCN(c2nnc(-n3c(C)ccc3C)s2)CC1 |  | 32.7%
COc1cccc2cc(-c3ccnc(N)n3)oc12 |  | 134%
Cc1ccc(NC(=O)c2ccccc2)s1 | active: 2 µM | 
COc1ccc(N=C2SC(CC(=O)Nc3ccccc3OC)C(=O)N2Cc2ccco2)cc1 (stereo unspecified) |  | 34%
Cc1ccc(NC(=O)CSc2ccc(-c3ccccn3)nn2)cc1 |  | inactive: -39.3%
O=C(c1ccco1)N1CCC(c2nc(-c3ccccc3Cl)no2)CC1 |  | 31.4%
O=C(Nc1cccc([N+](=O)[O-])c1)c1ccc(CN2CCOCC2)cc1 |  | -40%
O=C(/C=C/c1cccs1)Nc1nccs1 | active: 12.6 µM | 
CCCn1nnnc1NCc1ccccc1OCc1ccc(F)cc1 |  | 33.6%
O=c1c(Br)c(N2CCCCC2)cnn1-c1ccccc1 |  | 225%
O=C1N/C(=N\N=C\c2cccnc2)SC1Cc1ccc(SC(F)F)cc1 (stereo unspecified) |  | inactive: -66.4%
N/C(=N\OC(=O)c1ccc(Br)o1)c1cccnc1 |  | 33.4%
O=C(Nc1cccnc1)c1ccc(Cl)c(S(=O)(=O)N2CCc3ccccc32)c1 |  | inactive: -64.9%
O=C(O)c1cccc(CSc2ncccn2)c1 |  | 46.8%

5 records drawn at random from the list so far:
SMILES | Potency | activity change, positive = activation
O=C(O)c1cccc(CSc2ncccn2)c1 |  | 46.8%
CCCn1nnnc1NCc1ccccc1OCc1ccc(F)cc1 |  | 33.6%
O=C(/C=C/c1cccs1)Nc1nccs1 | active: 12.6 µM | 
O=c1n(Cc2ccc(Cl)cc2)c2sc3c(c2c2ncnn12)CCCC3 |  | -33.1%
N/C(=N\OC(=O)c1ccc(Br)o1)c1cccnc1 |  | 33.4%

Going on with the list.

SMILES | Potency | activity change, positive = activation
CCOC(=O)N1CCN(CC(=O)Nc2c(C(=O)OC)[nH]c3ccc(Cl)cc23)CC1 |  | inactive: -46%
COc1ccc(S(=O)(=O)N2CCOCC2)cc1NC(=O)CN1CCC(Cc2ccccc2)CC1 |  | -44.8%
Nc1ccccc1N=Cc1ccc(-c2cccc(Cl)c2)o1 |  | -44.1%
CCCc1nnc(NC(=O)Nc2ccccc2Cl)s1 | active: 15.8 µM | 
O=C(/C(=C\c1ccccc1)c1nc2ccccc2[nH]1)c1ccc(Cl)cc1 |  | inactive: -83.6%
COc1ccc(C(O)c2nccc3cc(OC)c(OC)cc23)cc1OC (stereo unspecified) |  | -82.1%
COc1ccc(-c2nsc3c(N4CCN(C(=O)c5ccco5)CC4)ncnc23)cc1 |  | inactive: -34.2%
N#Cc1c(N2CCN(C(=O)c3ccco3)CC2)nc(-c2ccccc2)c2c1CCCC2 |  | inactive: -44.1%
CC(=O)Oc1ccccc1N1C(=O)c2ccc(C(=O)O)cc2C1=O |  | 31.7%
O=C(CSc1nnnn1-c1ccc2c(c1)OCCO2)Nc1nc2c(s1)CCCC2 |  | inactive: -33.4%
Cc1cccc(Nc2nnc(-c3ccc(C)c(S(=O)(=O)N4CCN(C)CC4)c3)c3ccccc23)c1 |  | inactive: -35.5%
Cc1csc(SCC(=O)Nc2sccc2C(N)=O)n1 | active: 12.6 µM | 
CCn1c(SCC(=O)N(C(C)C)C(C)C)nnc1-c1cc2ccccc2cc1O |  | -7.36%
COC(=O)C1=C(C)Nc2c(c(=O)n(C)c(=O)n2C)C1c1ccncc1 (stereo unspecified) |  | 38%
CC(=O)Nc1ccc(-c2csc(Nc3ncccn3)n2)cc1 | active: 5.01 µM | 
CSc1cccc(NS(=O)(=O)c2ccc3c(c2)oc(=O)n3C)c1 |  | inactive: -30.7%
Cc1ccc(-c2cc(-c3ccccc3)no2)c(O)c1 |  | -41.3%
Cc1cnc(NC(=O)C2COc3ccccc3O2)s1 (stereo unspecified) | active: 10 µM | 
COc1cc(/C=N/NC(=S)NCCN2CCOCC2)cc(OC)c1O |  | 41%
COc1ccc(-c2oc3ncn4nc(Cc5ccccc5)nc4c3c2-c2ccc(OC)cc2)cc1 |  | 42.7%
O=C(Nc1ccccn1)C12CC3CC(C1)CC(C(=O)Nc1ccccn1)(C3)C2 |  | -46%
CC(=C1C(=O)c2ccccc2C1=O)N1CCN(c2ccccn2)CC1 |  | 31.4%

SMILES | Potency | activity change, positive = activation
O=C(COC(=O)c1cc[n+]([O-])cc1)Nc1ccc(F)c([N+](=O)[O-])c1 |  | -31.5%
Cc1ccc(/C=C/C(=O)Nc2ccccc2C(N)=O)o1 | active: 11.2 µM | 
S=C(Nc1ccccc1Cl)N1CCN(Cc2ccccc2)CC1 |  | inactive: -44.4%
CC(C)(C)c1ccc(C(=O)Nc2onc3c2CCCC3)cc1 | active: 11.2 µM | 
COc1ccc(-n2nc3cc(C)c(NC(C)=O)cc3n2)cc1 | active: 1.58 µM | 
Nc1nc2ccc(-c3nc4ccccc4o3)cc2s1 | active: 7.94 µM | 
O=c1nc2c(O)cccn2c2c1c(=O)[nH]c1ccccc12 |  | -71.4%
O=C(CCSCCC(=O)NCC1CCCO1)NCC1CCCO1 (stereo unspecified) |  | 47.5%
CCOC(=O)c1cc(C(=O)Nc2ccccc2F)nn1C | active: 12.6 µM | 
CCN(CC)C(=O)Cc1cc(C(=O)O)c2ccccc2n1 |  | 54.1%
Cc1ccccc1-c1cc(-c2ccccc2O)n[nH]1 | active: 25.1 µM | 
Cc1nn(Cc2c(Cl)cccc2Cl)c(C)c1NC(=O)c1cn(-c2ccccc2)nc1-c1ccccc1 |  | -80%
Cc1ccc2nc(NC(=O)/C=C/c3ccc4c(c3)OCO4)sc2c1 |  | inactive: -58.7%
O=[N+]([O-])c1c(NCCO)cc(N2CCC3(CC2)OCCO3)c2nonc12 |  | 40%
Cc1ccc(O)c(C2=Nc3ccccc3N=C(c3cccs3)C2)c1 |  | inactive: -22.1%
CCOc1cc(N2CCOCC2)c(OCC)cc1NC(=O)CN1CCC(Cc2ccccc2)CC1 |  | -58.4%
S=c1[nH]nc(-c2ccccc2Cl)n1CC1CCCO1 (stereo unspecified) |  | 37.4%
Cc1ccccc1-c1n[nH]c(=S)n1/N=C/c1c(C)nn(-c2ccccc2)c1C | active: 14.1 µM | 
